Among the data in paper PMC10560285 are binding values, retold here.

Chains of the proteins cited; added tags and fusions are not shown.
UniProt P08752: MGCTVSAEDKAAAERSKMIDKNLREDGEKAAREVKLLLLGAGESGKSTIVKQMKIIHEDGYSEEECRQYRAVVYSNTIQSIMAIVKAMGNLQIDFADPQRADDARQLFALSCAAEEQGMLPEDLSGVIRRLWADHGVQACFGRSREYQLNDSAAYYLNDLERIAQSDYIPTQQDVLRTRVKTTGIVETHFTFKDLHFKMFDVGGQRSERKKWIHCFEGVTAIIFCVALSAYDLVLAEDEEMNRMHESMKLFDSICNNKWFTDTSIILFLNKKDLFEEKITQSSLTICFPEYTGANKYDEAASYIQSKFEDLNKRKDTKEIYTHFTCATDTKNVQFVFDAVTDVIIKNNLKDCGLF
UniProt Q9DC51: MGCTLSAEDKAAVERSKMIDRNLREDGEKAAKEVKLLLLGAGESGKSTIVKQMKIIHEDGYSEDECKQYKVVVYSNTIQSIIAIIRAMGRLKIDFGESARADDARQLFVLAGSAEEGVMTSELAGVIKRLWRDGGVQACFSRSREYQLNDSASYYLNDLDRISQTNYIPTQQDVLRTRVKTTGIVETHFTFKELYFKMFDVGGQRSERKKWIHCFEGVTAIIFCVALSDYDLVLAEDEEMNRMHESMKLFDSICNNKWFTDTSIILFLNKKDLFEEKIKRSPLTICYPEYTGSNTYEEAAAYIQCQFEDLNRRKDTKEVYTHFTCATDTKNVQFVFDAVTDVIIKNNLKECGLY
UniProt B2RSH2: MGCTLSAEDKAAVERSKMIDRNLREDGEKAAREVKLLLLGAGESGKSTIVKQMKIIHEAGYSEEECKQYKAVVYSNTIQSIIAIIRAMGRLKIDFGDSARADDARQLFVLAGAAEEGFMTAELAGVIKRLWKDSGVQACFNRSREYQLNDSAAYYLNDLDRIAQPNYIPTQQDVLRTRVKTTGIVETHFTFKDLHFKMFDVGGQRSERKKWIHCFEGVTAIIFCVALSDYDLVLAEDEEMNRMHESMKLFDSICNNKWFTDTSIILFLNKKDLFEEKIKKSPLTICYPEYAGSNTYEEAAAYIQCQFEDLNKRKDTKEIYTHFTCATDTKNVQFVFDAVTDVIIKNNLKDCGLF

T1: leucine-rich repeat G protein-coupled receptor 4 (LGR4) (mouse (endogenous in Neuro-2a)) (UniProt A2ARI4)
T1 sequence: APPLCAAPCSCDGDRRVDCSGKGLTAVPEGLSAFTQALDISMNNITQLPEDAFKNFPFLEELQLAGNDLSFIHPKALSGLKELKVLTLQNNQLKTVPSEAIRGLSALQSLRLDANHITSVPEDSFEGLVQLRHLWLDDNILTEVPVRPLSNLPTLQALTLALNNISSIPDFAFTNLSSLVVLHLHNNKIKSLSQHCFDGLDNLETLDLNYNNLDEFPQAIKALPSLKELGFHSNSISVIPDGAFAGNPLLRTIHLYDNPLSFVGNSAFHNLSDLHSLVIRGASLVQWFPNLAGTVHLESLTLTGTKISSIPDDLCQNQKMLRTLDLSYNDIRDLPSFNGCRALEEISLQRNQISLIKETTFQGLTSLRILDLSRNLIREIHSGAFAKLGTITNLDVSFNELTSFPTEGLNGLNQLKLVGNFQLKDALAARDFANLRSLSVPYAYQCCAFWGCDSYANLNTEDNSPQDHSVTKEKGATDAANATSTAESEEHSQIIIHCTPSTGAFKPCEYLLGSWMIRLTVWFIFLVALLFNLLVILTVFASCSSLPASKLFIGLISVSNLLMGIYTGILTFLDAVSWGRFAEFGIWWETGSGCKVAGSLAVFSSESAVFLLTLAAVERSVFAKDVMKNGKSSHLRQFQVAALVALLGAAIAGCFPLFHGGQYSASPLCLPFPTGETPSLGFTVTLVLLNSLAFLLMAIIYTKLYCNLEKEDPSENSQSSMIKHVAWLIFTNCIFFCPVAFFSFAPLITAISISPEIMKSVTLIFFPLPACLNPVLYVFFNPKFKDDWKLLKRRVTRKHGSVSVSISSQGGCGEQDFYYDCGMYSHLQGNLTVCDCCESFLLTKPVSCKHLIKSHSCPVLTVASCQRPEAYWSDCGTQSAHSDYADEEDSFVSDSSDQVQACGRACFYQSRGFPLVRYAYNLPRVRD

B1: Gab1 (protein, UniProt Q9QYY0 1-695)
chain: MSGGEVVCSGWLRKSPPEKKLKRYAWKRRWFVLRSGRLTGDPDVLEYYKNDHAKKPIRIIDLNLCQQVDAGLTFNKKEFENSYIFDINTIDRIFYLVADSEEDMNKWVRCICDICGFNPTEEDPVKPLTGSSQAPVDSPFAISTAPASSQMEASSVALPPPYQVISLPPHPDTLGLQDDPQDYLLLINCQSKKPEPNRTLFDSAKPTFSETDCNDNVPSHQTPASSQSKHGMNGFFQQQMMYDCPPSRLTSVSGESSLYNLPRSYSHDVLPKESPSSTEADGELYTFNTPSGTAGVETQMRHVSISYDIPPTPGNTYQIPRTFPESTLGQSSKLDTIPDIPPPRPPKPHPTHDRSPVETCGVPRTASDTDSSYCIPPPAGMTPSRSNTISTVDLNKLRKDASSQDCYDIPRTFPSDRSSSLEGFHSQYKIKSVLTAGGVSGEELDENYVPMNPNSPPRQHSGSFTEPIQEPNYVPMTPGTFDFSSFGMQVPPPAHMGFRSSPKTPPRRPVPVADCEPPPVDRNLKPDRKVKPAPLDIKPLSEWEELQAPVRSPITRSFARDSSRFPMSPRPDSVHSTTSSSDSHDSEENYVPMNPNLSGEDPNLFASNSLDGGSSPMNKPKGDKQVEYLDLDLDSGKSTPPRKQKSSGSGSSMADERVDYVVVDQQKTLALKSTREAWTDGRQSTESETPTKNVK

Results are given in words; binding and its absence hold for the method and conditions named. In cells and extracts the contact can be indirect. Some results given as binding are weak or reduced against the parent protein; the word gives no strength.

This test addresses T1, leucine-rich repeat G protein-coupled receptor 4 (LGR4) (mouse (endogenous in Neuro-2a)). The experiment in a line: co-IP; Neuro-2a cells treated with RSPO3 (50 ng/mL) and cultivated for 5-15 min; LGR4 association with Gab1 and Gαi1/3 examined by co-immunoprecipitation; protocol referred to previous studies.
As to Gαi2 (from UniProt P08752 1-355), the binding entry is recorded as “no binding”.

Take Gαi3 (from UniProt Q9DC51 1-354): the binding entry is on record as “binds”.

Consider Gαi1 (from UniProt B2RSH2 1-354), for which the binding result is recorded as “binds”.

For the molecule B1, the binding result is recorded as “binds”.
